# Assay results as given in PMC3372421.
# Amino acid sequences for entries named in this document (tags omitted).
# UniProt Q7Z434: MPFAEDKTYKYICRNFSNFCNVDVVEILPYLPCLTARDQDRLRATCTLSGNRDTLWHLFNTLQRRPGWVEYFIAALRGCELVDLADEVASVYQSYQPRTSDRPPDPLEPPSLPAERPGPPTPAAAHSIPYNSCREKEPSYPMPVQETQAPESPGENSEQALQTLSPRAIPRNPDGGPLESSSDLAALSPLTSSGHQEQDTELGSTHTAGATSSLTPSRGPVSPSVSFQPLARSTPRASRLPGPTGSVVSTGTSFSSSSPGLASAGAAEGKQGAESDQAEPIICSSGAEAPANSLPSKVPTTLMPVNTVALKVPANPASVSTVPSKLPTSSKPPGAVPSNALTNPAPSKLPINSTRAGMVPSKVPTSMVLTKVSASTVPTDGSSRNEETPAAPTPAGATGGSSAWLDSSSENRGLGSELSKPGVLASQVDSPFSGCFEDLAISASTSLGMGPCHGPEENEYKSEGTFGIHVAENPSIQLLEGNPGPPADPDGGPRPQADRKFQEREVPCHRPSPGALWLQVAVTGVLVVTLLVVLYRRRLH
# UniProt Q14258: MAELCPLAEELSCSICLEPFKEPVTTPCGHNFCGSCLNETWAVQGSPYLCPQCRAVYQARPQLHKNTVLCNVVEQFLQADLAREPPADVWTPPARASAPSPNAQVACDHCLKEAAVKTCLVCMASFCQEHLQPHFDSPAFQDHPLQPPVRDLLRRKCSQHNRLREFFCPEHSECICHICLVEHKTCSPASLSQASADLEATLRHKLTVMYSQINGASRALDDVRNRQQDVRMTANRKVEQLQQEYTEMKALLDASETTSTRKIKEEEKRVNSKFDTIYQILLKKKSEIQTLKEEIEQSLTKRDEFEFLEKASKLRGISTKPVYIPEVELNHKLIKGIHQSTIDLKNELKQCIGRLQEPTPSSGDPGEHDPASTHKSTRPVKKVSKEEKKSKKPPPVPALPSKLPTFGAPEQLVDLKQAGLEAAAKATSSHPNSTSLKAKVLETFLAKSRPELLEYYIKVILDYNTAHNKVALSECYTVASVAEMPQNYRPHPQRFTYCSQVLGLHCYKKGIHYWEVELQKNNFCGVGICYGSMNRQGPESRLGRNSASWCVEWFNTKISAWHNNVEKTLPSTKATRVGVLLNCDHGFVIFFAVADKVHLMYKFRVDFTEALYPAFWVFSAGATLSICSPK
# Results are given in words; binding and its absence hold for the method and conditions named. In cells and extracts the contact can be indirect. Some results given as binding are weak or reduced against the parent protein; the word gives no strength.
# Biological target: mitochondrial antiviral signaling adaptor MAVS (human (endogenous in HEK293T)) (UniProt Q7Z434)
# Assay: co-IP; endogenous MAVS immunoprecipitated with anti-MAVS (2.5 μg/ml) and protein G-magnetic beads from HEK293T cell extracts in lysis buffer-B (50 mM Tris-HCl pH 7.5, 140 mM NaCl, 5 mM EDTA, 5% glycerol, 1% Triton X-100, 1% Nonidet P-40); cells infected or not with SeV H4 in the presence of MG132 for 6 hr; immunoblot for TRIM25
substance,measurement,value
E3 ubiquitin ligase TRIM25 (from UniProt Q14258 1-630),binding,binds
